Data as given in PubChem BioAssay AID1259308 (NCATS, 2017).
Here is a random part of about 59,000 reagents tested. In the full data, about 1,510 (2.6%) were called active. 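Calls use total luciferase alone and ignore viability, so some active siRNAs may act by altering cell number.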 Reagents against one gene are numbered here.

Purpose: 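Genes whose loss raises luciferase production in HEK293 cells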 (primary screen)
Cell system: human HEK293 embryonic kidney cells stably expressing firefly luciferase (HEK-CMV-Luc2-Hygro)
Knock-down reagent: single siRNA against human genes, 0.8 pmol siRNA per well
Timing: 72 h
Measured: 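Luciferase light (ONE-Glo) measured on one replicate plate set and viability (CellTiter-Glo) on the other, scaled to a negative control siRNA, with robust z-scores and luciferase per cell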
Reading the numbers: total luciferase, z-score and total luciferase, % of control: higher = more reporter protein produced; luciferase per cell, z-score: higher = more reporter output per viable cell; viable cells, % of control: higher = more viable cells
Active means: 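An siRNA counts as active if its total luciferase robust z-score exceeds 3; genes with two or more such siRNAs out of three were retested with fresh siRNAs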
Meaning of the calls: active = raised luciferase; inactive = no rise

gene knocked down	reagent	total luciferase, z-score	total luciferase, % of control	luciferase per cell, z-score	viable cells, % of control	call
H2AC1	1	3.89	159	3.38	73.1	active
H2AC1	2	-0.66	68.8	0.0927	75	inactive
H2AC1	3	0.612	94.1	0.626	89.1	inactive
HS3ST2	1	-0.431	73.3	-0.584	95.5	inactive
HS3ST2	2	0.0514	82.9	-0.194	97.5	inactive
HS3ST2	3	0.881	99.4	0.836	89.1	inactive
MBD2	1	-1.99	42.3	-2.53	92.1	inactive
MBD2	2	1.04	102	0.98	88.5	inactive
MBD2	3	-0.399	74	-0.362	90.9	inactive
RS1	1	0.557	93	1.21	75.5	inactive
RS1	2	-0.142	79.1	-0.593	103	inactive
RS1	3	1.29	107	0.936	93.9	inactive
EEIG1	1	3	142	3.31	66.1	active
EEIG1	2	0.235	86.6	0.13	93.5	inactive
EEIG1	3	3.52	152	1.8	106	active
SPECC1L	1	3.38	149	2.17	94.1	active
SPECC1L	2	1.22	106	0.987	91.4	inactive
SPECC1L	3	0.0365	82.6	-0.482	105	inactive
SIAH3	1	2.22	126	1.31	99.7	inactive
SIAH3	2	0.228	86.4	0.333	88.5	inactive
SIAH3	3	-0.314	75.6	-0.746	103	inactive
SHROOM1	1	-0.282	76.3	-0.794	105	inactive
SHROOM1	2	0.714	96.1	1.1	80.4	inactive
SHROOM1	3	-0.299	75.9	0.0272	84.3	inactive
LAPTM5	1	1.08	103	0.617	98.1	inactive
LAPTM5	2	-1.5	52	-1.3	81.8	inactive
LAPTM5	3	-0.384	74.3	-0.766	102	inactive
DHX8	1	-1.54	51.3	-1.08	76.1	inactive
DHX8	2	2.04	122	2.73	66.7	inactive
DHX8	3	1.93	120	1.82	83.1	inactive
BCL10-AS1	1	0.306	88	-0.088	101	inactive
BCL10-AS1	2	-0.429	73.4	-0.567	95.2	inactive
BCL10-AS1	3	0.619	94.2	1.68	67.6	inactive
RAB3GAP1	1	0.252	86.9	1.32	68.6	inactive
RAB3GAP1	2	-0.234	77.2	-0.695	104	inactive
RAB3GAP1	3	-0.713	67.7	-0.641	89.6	inactive
EYS	1	-1.69	48.4	-0.274	58.1	inactive
EYS	2	-0.73	67.4	-0.539	86.8	inactive
EYS	3	0.631	94.4	0.711	87.5	inactive
EYS	4	-0.463	72.7	-0.61	95.3	inactive
EYS	5	-0.306	75.8	0.112	82.2	inactive
EYS	6	-1.19	58.2	-1.66	101	inactive
EYS	7	0.32	88.3	-0.332	108	inactive
EYS	8	0.839	98.6	0.438	98.2	inactive
EYS	9	0.299	87.8	0.822	79.1	inactive
CLEC2B	1	1.34	109	0.685	101	inactive
CLEC2B	2	0.886	99.5	0.758	91.1	inactive
CLEC2B	3	1.23	106	2	70.2	inactive
DRAIC	1	1.36	109	0.892	96.2	inactive
DRAIC	2	-2.24	37.4	-1.71	65.7	inactive
DRAIC	3	-0.975	62.5	-0.386	77.3	inactive
TRIM44	1	-0.573	70.5	0.267	73.4	inactive
TRIM44	2	1.59	113	0.764	104	inactive
TRIM44	3	-0.634	69.3	-0.645	91.7	inactive
DPY19L1	1	0.805	97.9	0.416	98	inactive
DPY19L1	2	-0.63	69.4	-0.202	81.8	inactive
DPY19L1	3	-1.51	51.8	-1.21	79.5	inactive
